# Reference: the supplement of paper PMC6411743
# Sequences of proteins named here, by UniProt entry; tags and fusion partners are left off. A change or cut given only in a name is not applied to a line headed by its entry.
# UniProt Q96FJ0: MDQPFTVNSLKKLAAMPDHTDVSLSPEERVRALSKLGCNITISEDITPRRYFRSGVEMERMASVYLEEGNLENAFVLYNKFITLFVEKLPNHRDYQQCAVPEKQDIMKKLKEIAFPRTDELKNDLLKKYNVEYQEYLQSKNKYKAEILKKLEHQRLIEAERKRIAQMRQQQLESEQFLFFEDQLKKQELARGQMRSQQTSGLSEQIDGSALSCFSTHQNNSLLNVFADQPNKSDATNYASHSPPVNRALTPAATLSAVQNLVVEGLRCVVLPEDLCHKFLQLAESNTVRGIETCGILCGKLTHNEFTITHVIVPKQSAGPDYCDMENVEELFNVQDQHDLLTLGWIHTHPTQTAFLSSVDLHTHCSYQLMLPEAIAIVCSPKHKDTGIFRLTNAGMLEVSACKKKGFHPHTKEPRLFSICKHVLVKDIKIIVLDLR
# UniProt Q96JC1: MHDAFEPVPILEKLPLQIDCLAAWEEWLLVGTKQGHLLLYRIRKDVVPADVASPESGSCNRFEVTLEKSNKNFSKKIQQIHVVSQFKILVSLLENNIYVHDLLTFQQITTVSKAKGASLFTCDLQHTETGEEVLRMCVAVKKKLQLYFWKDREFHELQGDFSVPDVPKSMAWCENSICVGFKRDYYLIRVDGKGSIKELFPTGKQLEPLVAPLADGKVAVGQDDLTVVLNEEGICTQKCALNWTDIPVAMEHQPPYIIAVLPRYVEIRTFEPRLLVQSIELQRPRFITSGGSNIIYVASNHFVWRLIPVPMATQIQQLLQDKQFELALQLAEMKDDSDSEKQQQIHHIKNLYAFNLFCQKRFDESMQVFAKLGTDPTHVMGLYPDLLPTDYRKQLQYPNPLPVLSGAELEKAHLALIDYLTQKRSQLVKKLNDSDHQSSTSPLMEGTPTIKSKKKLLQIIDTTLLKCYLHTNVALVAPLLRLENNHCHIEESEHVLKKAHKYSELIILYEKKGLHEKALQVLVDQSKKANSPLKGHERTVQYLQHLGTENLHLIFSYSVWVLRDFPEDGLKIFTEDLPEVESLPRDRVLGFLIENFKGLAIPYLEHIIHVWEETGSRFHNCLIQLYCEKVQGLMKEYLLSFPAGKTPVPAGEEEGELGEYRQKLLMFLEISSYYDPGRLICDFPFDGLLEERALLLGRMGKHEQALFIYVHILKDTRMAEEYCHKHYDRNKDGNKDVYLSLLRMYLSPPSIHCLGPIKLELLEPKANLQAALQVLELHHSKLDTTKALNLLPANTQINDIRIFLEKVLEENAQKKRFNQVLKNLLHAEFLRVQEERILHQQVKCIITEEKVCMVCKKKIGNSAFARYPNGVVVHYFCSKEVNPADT
# UniProt Q96BZ9: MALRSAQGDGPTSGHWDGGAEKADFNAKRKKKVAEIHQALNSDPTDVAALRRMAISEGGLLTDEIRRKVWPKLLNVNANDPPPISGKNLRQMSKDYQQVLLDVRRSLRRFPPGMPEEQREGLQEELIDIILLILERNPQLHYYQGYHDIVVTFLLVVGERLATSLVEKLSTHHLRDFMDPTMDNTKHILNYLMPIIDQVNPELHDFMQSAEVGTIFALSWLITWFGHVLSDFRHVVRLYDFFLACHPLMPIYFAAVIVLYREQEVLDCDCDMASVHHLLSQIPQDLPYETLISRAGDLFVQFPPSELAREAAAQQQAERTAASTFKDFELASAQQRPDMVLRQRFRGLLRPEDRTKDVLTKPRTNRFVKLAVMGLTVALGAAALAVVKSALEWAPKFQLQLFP
# UniProt Q96S59, whole entry: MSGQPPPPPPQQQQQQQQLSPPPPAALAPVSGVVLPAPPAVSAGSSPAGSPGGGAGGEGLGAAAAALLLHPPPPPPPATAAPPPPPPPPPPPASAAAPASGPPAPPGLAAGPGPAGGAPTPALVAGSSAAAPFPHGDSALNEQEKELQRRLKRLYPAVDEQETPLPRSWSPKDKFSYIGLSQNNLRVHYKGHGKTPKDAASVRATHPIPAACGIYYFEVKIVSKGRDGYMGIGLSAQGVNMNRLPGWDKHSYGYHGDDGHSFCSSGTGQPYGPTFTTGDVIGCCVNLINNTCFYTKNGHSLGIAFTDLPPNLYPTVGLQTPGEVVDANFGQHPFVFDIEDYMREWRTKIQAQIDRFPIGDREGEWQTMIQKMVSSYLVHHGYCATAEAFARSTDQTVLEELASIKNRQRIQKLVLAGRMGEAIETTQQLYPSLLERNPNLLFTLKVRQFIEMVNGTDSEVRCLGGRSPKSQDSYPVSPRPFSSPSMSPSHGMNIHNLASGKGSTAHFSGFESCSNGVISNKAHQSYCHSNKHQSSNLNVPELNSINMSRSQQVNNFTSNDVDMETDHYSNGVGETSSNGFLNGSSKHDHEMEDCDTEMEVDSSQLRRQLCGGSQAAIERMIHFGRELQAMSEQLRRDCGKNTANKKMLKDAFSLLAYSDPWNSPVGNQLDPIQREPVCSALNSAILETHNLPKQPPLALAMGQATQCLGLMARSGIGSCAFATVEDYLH
# UniProt Q96I24: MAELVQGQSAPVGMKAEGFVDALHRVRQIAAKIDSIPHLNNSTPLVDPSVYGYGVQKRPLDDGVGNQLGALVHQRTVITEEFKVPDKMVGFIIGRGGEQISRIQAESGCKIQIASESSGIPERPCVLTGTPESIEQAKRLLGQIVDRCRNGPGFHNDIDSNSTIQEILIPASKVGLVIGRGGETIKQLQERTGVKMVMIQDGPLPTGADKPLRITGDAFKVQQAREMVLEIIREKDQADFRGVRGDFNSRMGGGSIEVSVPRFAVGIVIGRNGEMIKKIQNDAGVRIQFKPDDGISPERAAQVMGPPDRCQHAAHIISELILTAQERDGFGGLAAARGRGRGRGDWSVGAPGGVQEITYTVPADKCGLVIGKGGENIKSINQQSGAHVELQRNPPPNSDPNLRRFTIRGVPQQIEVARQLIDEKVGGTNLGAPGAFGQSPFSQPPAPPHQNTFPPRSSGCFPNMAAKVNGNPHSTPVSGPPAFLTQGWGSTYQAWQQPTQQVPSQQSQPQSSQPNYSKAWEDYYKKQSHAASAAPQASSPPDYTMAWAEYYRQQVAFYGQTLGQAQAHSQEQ
# UniProt Q96BS2: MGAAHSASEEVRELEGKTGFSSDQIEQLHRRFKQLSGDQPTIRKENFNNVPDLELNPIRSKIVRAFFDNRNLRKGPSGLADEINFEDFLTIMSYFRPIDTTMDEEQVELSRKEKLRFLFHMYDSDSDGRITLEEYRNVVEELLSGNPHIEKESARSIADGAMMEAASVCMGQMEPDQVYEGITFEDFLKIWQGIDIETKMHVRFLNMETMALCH
# UniProt Q96GY3: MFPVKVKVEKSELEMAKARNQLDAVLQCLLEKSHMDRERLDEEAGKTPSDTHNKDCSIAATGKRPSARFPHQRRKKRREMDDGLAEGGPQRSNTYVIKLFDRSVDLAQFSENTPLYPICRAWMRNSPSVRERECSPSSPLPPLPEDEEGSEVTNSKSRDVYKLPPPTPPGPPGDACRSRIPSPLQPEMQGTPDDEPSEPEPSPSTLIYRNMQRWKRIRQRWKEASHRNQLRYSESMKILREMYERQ
# UniProt Q96CN7: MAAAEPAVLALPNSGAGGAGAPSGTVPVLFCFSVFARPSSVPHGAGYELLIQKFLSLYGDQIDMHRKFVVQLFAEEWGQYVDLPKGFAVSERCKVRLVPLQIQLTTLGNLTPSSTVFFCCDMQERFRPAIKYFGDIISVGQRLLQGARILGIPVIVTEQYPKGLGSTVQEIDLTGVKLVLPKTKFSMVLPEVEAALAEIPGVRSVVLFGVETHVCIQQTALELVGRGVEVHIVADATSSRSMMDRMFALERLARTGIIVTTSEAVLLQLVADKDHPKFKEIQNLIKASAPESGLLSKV
# UniProt Q96JJ7: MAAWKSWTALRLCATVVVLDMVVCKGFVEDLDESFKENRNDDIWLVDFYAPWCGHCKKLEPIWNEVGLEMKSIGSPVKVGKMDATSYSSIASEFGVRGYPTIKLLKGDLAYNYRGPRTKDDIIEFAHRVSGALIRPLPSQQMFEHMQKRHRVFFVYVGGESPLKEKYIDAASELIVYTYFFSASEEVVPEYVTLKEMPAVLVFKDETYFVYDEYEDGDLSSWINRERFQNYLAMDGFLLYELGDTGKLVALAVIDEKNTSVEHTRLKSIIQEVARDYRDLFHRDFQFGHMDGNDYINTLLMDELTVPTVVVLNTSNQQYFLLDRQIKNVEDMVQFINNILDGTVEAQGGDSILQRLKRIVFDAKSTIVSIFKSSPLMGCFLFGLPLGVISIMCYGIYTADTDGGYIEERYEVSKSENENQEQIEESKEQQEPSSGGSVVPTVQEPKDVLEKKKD
# UniProt Q96CB8, whole entry: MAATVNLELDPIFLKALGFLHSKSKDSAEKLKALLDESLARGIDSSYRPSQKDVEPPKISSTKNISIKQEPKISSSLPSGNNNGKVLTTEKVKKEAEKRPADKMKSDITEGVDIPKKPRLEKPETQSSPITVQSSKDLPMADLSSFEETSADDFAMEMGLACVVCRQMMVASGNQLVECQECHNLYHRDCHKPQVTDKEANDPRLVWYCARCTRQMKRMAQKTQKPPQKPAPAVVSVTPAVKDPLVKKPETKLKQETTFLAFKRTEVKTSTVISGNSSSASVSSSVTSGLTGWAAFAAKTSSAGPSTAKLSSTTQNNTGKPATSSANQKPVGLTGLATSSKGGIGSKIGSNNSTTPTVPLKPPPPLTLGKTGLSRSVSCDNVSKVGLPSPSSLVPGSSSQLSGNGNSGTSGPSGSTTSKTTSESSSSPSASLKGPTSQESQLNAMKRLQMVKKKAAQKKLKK
# UniProt Q96E29: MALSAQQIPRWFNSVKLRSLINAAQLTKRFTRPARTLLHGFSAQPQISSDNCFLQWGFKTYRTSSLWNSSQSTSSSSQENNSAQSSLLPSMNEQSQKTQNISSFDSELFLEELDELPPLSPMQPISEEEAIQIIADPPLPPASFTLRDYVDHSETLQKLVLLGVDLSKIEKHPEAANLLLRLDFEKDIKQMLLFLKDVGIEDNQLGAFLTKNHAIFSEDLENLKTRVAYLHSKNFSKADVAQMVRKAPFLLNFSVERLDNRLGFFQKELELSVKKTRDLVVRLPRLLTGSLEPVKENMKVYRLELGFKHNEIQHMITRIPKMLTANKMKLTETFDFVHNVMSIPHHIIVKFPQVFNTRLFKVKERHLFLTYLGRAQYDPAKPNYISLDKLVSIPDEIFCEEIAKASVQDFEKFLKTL
# UniProt Q96PM5: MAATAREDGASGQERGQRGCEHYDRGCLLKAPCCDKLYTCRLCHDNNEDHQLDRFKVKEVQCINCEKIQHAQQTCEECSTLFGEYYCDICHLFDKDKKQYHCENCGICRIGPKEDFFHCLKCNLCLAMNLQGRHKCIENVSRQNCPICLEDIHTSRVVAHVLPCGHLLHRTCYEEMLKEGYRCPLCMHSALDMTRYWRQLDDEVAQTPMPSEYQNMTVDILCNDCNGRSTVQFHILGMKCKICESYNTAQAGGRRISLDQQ
# ± gives the standard deviation of the averaged measurements. This is a selection; strong and weak results do not stand in their true shares. Small differences around the control level are noise.
# Compound: Nc1ncnc2c1ncn2[C@@H]1O[C@H](COP(=O)(O)OP(=O)(O)OP(=O)(O)O)[C@@H](O)[C@H]1O [adenosine triphosphate]
# Assay: NP40-soluble protein abundance relative to vehicle (solubility fold change) (ratio); higher = more soluble protein in presence of ATP
# In short: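 Each value is a fold change relative to the detergent-processed vehicle, calculated per replicate from vsn-normalised intensities. Jurkat crude lysate received eight concentrations (0.1 to 10 mM) for 10 min at room temperature and 3 min at 37 °C, then was solubilised in 0.8% NP40 with benzonase (60 min, 4 °C). The ultracentrifuged supernatant was TMT-labelled and run by LC-MS/MS in three independent experiments.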
target,measurement,setting,value
UniProt Q96FJ0 and related entries,NP40-soluble protein abundance,concentration: 0.1mM,1.11 ± 0.066
same,NP40-soluble protein abundance,concentration: 0.5mM,1.08 ± 0.1
UniProt Q96JC1 and related entries,NP40-soluble protein abundance,concentration: 0.1mM,1.07 ± 0.085
same,NP40-soluble protein abundance,concentration: 0.5mM,0.971 ± 0.13
UniProt Q96BZ9 and related entries,NP40-soluble protein abundance,concentration: 0.1mM,0.962 ± 0.11
same,NP40-soluble protein abundance,concentration: 0.5mM,0.914 ± 0.051
RANBP9 (UniProt Q96S59),NP40-soluble protein abundance,concentration: 0.1mM,0.987 ± 0.045
same,NP40-soluble protein abundance,concentration: 0.5mM,0.977 ± 0.072
FUBP3 (UniProt Q96I24),NP40-soluble protein abundance,concentration: 0.1mM,1 ± 0.016
same,NP40-soluble protein abundance,concentration: 0.5mM,0.987 ± 0.028
UniProt Q96RG2 and related entries,NP40-soluble protein abundance,concentration: 0.1mM,1.003 ± 0.0072
same,NP40-soluble protein abundance,concentration: 0.5mM,0.999 ± 0.011
UniProt Q96BS2 and related entries,NP40-soluble protein abundance,concentration: 0.1mM,0.998 ± 0.084
same,NP40-soluble protein abundance,concentration: 0.5mM,0.984 ± 0.098
LIN37 (UniProt Q96GY3),NP40-soluble protein abundance,concentration: 0.1mM,0.933 ± 0.083
same,NP40-soluble protein abundance,concentration: 0.5mM,0.952 ± 0.037
KTI12 (UniProt Q96EK9),NP40-soluble protein abundance,concentration: 0.1mM,0.938 ± 0.12
same,NP40-soluble protein abundance,concentration: 0.5mM,0.929 ± 0.12
DCPS (UniProt Q96C86),NP40-soluble protein abundance,concentration: 0.1mM,1.04 ± 0.062
same,NP40-soluble protein abundance,concentration: 0.5mM,1.05 ± 0.057
UniProt Q96Q89-3|Q96Q89 and related entries,NP40-soluble protein abundance,concentration: 0.1mM,1.04 ± 0.015
same,NP40-soluble protein abundance,concentration: 0.5mM,1.04 ± 0.035
ISOC1 (UniProt Q96CN7),NP40-soluble protein abundance,concentration: 0.1mM,1.02 ± 0.087
same,NP40-soluble protein abundance,concentration: 0.5mM,0.99 ± 0.024
SCLT1 (UniProt Q96NL6),NP40-soluble protein abundance,concentration: 0.1mM,1.05 ± 0.069
same,NP40-soluble protein abundance,concentration: 0.5mM,0.977 ± 0.099
UniProt Q96IJ6 and related entries,NP40-soluble protein abundance,concentration: 0.1mM,1.06 ± 0.049
same,NP40-soluble protein abundance,concentration: 0.5mM,1.04 ± 0.032
UniProt Q96GJ1-2,NP40-soluble protein abundance,concentration: 0.1mM,1.17 ± 0.23
same,NP40-soluble protein abundance,concentration: 0.5mM,1.09 ± 0.11
UniProt Q96JJ7,NP40-soluble protein abundance,concentration: 0.1mM,1.03 ± 0.035
same,NP40-soluble protein abundance,concentration: 0.5mM,0.995 ± 0.016
UniProt Q96CB8 and related entries,NP40-soluble protein abundance,concentration: 0.1mM,0.998 ± 0.034
same,NP40-soluble protein abundance,concentration: 0.5mM,1.02 ± 0.069
UniProt Q96E29 and related entries,NP40-soluble protein abundance,concentration: 0.1mM,1.06 ± 0.094
same,NP40-soluble protein abundance,concentration: 0.5mM,1.09 ± 0.062
UniProt Q96JM7 and related entries,NP40-soluble protein abundance,concentration: 0.1mM,1.04 ± 0.027
same,NP40-soluble protein abundance,concentration: 0.5mM,1.08 ± 0.057
UniProt Q96DU3-2|Q96DU3,NP40-soluble protein abundance,concentration: 0.1mM,0.931 ± 0.038
same,NP40-soluble protein abundance,concentration: 0.5mM,0.872 ± 0.084
IPO9 (UniProt Q96P70),NP40-soluble protein abundance,concentration: 0.1mM,0.972 ± 0.019
same,NP40-soluble protein abundance,concentration: 0.5mM,0.993 ± 0.034
UniProt Q96PM5 and related entries,NP40-soluble protein abundance,concentration: 0.1mM,1.12 ± 0.095
same,NP40-soluble protein abundance,concentration: 0.5mM,1.03 ± 0.083
